This passage reports AC50 results from PubChem BioAssay AID445 (National Center for Advancing Translational Sciences (NCATS), 2006).

The nature of this experiment: IkB Signaling. Particulars: ABC-DLBCL IkBa-CBG/CBR dual luciferase ratio (green luciferase fused to IkBa over red control in OCI-Ly3 lymphoma cells), 4 h. The method, boiled down: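 Luminescence ratio of IκBα-fused green versus native red beetle luciferase in OCI-Ly3 cells, 4 h post-doxycycline with compound; red signal alone, scaled from basal (0%) to zero light (-100%), flagged nonspecific or cytotoxic effects.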
Where [1] appears, read: measured here: control luc red channel unless noted.
The mark [2] stands for this setting: measured here: IkB-luc green channel.
[3] abbreviates: measured here: control luc red channel.

Some of the results follow. Further columns of the screen follow, without active or inactive calls. Compounds called inactive in the main read-out are mostly missing here. Potencies come from curve fits of mixed quality, noted in brackets.

On to `COc1ccc(-c2csc3nc(-c4ccc(F)cc4)oc(=O)c23)cc1`, for which, under setting [1], the AC50 is 2.51 µM [falling, full curve].

As for `COCCNC(=O)c1ccc(-n2c(-c3ccccc3)cc3c2CCCCC3)cc1`, the AC50 under setting [1] was 31.6 µM [falling, single point]. Take `COc1ccc(C2=NS(=O)(=O)N(C)C(C(=O)NCc3ccccc3)=C2)cc1OC`: the AC50 under setting [1] is 1 µM [falling, partial curve]. The same measure, in the same setting: the figure for `Cc1ccc(S(=O)(=O)N2CCN(C(=O)CSc3nc4ccccc4o3)C2)cc1` is 15.8 µM [falling, partial curve]; for `CCn1c(=O)n(CC)c2cc(S(=O)(=O)N3CCC(c4ccccc4)CC3)ccc21` it is 12.6 µM [falling, partial curve]. Take `CCc1ccc(NC(=O)C(=O)NCC(c2ccc3c(c2)OCO3)N2CCOCC2)cc1` (stereo not drawn): the concentration at half-maximal activity (AC50) under setting [1] is 12.6 µM [rising, partial curve]. Still for that read-out and setting: the value for `COc1ccc(-c2cc(C(=O)Nc3ccn(Cc4ccc(C)cc4)n3)no2)cc1OC` was 0.316 µM [rising, full curve].

As to `O=C(Nc1cccnc1)c1cc(-c2ccc3c(c2)OCO3)on1`, the AC50 under setting [1] was 3.16 µM [falling, full curve]. Same read-out and setting: the figure for `CCC(C(=O)NCc1ccccc1OC)n1nc(C)n2c(cc3sccc32)c1=O` (stereo not drawn) is 39.8 µM [falling, single point]. For the molecule `CCNC(=O)[C@@H]1O[C@@H](n2cnc3c(NCc4ccccc4)ncnc32)[C@@H](O)[C@H]1O`, the concentration at half-maximal activity (AC50) under setting [2] is 7.94 µM [rising, full curve, poor fit] and the half-maximal activity concentration (AC50) under setting [3] is 0.631 µM [rising, full curve, poor fit]. For `CCOC(=O)c1c(S(=O)(=O)NCC(=O)Nc2ccc(C)c(Cl)c2)c(C)n(C)c1C`, under setting [1], the AC50 was 25.1 µM [falling, single point]. On the same count and under the same terms, the figure for `COc1ccc(NC(=O)C2CCCN2S(=O)(=O)c2cccc3cccnc23)cc1OC` (stereo not drawn) is 0.398 µM [rising, full curve]. Turning to `CC(=O)C1=C(C)NC(SCC(=O)c2ccc(Cl)c(Cl)c2)=C(C#N)C1c1ccco1` (stereo not drawn), under setting [1], the AC50 is 10 µM [falling, partial curve]. As to `CCOC(=O)c1cnc2ccc(C(=O)OC)cc2c1Nc1ccccc1CC`, the concentration at half-maximal activity (AC50) under setting [1] was 15.8 µM [falling, partial curve]. For the molecule `CCCC(=O)NC(c1ccco1)c1cc(Cl)c2cccnc2c1O` (stereo not drawn), the half-maximal activity concentration (AC50) under setting [1] was 0.398 µM [falling, full curve].

Consider `O=C(Nc1ccc2c(c1)ncn2-c1ccccc1)c1ccco1`, for which the AC50 under setting [1] is 10 µM [falling, partial curve]. Consider `CCc1ccccc1N(C)C(=O)c1cnc(N2CCOCC2)c2ccccc12`, for which the half-maximal activity concentration (AC50) under setting [1] was 0.2 µM [falling, partial curve]. Still for that read-out and setting: the figure for `Cc1ccc(Cc2nc3ccccc3nc2SCC(=O)NCc2ccc(F)cc2)cc1` is 2.51 µM [falling, full curve]; for `Cc1cc(Br)ccc1NC(=O)c1cn(C2CCCC2)c(=O)c2c1c1ccccc1n2C` it is 1 µM [falling, full curve, poor fit]; for `COc1ccc(CCNc2ncnc3c2c(-c2ccccc2)cn3-c2ccc(F)cc2)cc1OC` it is 31.6 µM [falling, single point].

In the case of `Cc1cnn(-c2ccc3nnc(-c4ccc(Br)cc4)n3n2)c1`, the AC50 under setting [1] was 0.0794 µM [falling, full curve]. On the same count and under the same terms, the value for `Cc1ccc(C)c(Nc2nn3c(=O)c4ccc(C(=O)NCCc5ccccc5)cc4nc3s2)c1` was 10 µM [falling, partial curve]; that for `Cc1ccc(N2CCN(C(=O)c3c4c(nc5ccccc35)C(=O)N(C3CCCCC3)C4)CC2)c(C)c1` was 25.1 µM [falling, partial curve]. Same read-out and setting: the figure for `CCOC(=O)N1CCN(S(=O)(=O)c2ccc(OCC)c3ccccc23)CC1` is 25.1 µM [falling, single point]. For `COc1ccc(C(=O)Nc2nc3c(s2)CCc2cc(OC)ccc2-3)cc1`, under setting [1], the concentration at half-maximal activity (AC50) was 10 µM [falling, partial curve]. Still for that read-out and setting: the value for `COCCCn1c(SCC(=O)NCc2ccccc2)nc2c(sc3ccccc32)c1=O` was 6.31 µM [rising, partial curve, poor fit]; that for `Oc1c(C(c2ccc(Cl)cc2)N2CCC3(CC2)OCCO3)sc2nc(-c3ccco3)nn12` (stereo not drawn) was 0.1 µM [rising, full curve, poor fit]. The same measure, in the same setting: the value for `N#C/C(C(N)=O)=c1/ccc2c(c1)N1C3=C(CCCC3)CC3CCCCC31N=2` (stereo not drawn) was 10 µM [falling, partial curve]; that for `CCc1ccc(-c2[nH]c3c(c2-c2sc(C)c(C(=O)OC)c2O)c(=O)[nH]c(=O)n3C)cc1` was 12.6 µM [falling, partial curve]; that for `CCCCN(CC)C(=O)Cc1c(C(=O)O)[nH]c2ccc(Cl)cc12` was 15.8 µM [falling, partial curve]. Consider `CCOc1ccc(CCNC(c2cccc(Cl)c2)c2nnc(-c3ccccc3)o2)cc1OCC` (stereo not drawn), for which, under setting [1], the half-maximal activity concentration (AC50) is 15.8 µM [falling, partial curve]. Same read-out and setting: the value for `COC(=O)c1ccc2c(c1)N(Cc1ccc(F)cc1)C(=O)c1ccccc1S2` was 15.8 µM [falling, partial curve]; that for `COc1cccc(/C=C/c2nc(C#N)c(NCCc3ccc(OC)c(OC)c3)o2)c1` was 39.8 µM [falling, partial curve]; that for `CCCCN(CCCC)S(=O)(=O)c1ccc2oc(C(=O)NCc3ccc(C)cc3)c(C)c2c1` was 3.98 µM [falling, partial curve]. On the same count and under the same terms, the value for `CCCCN1C(=O)C(O)(c2c[nH]c3ccccc23)c2cc(Br)ccc21` (stereo not drawn) was 25.1 µM [falling, single point]; that for `COc1ccc2c(c1)sc1ncc(C(=O)NCc3ccc(OC(C)C)cc3)c(=O)n12` was 0.0158 µM [falling, full curve, poor fit]. For `O=C(Nc1nnc(-c2ccccc2)o1)c1ccc(Cl)cc1`, the AC50 under setting [2] is 10 µM [rising, single point] and the half-maximal activity concentration (AC50) under setting [3] is 2.51 µM [falling, partial curve]. Turning to `CCCOCCOC(=O)c1[nH]c2c(c1C)C(=O)CC(c1cc(OC)ccc1OC)C2` (stereo not drawn), the concentration at half-maximal activity (AC50) under setting [2] is 1 µM [rising, full curve] and the AC50 under setting [3] was 10 µM [rising, partial curve]. Consider `COc1ccc(-c2cc(C(F)(F)F)nc(SCCC(=O)Nc3cc(C)ccc3O)n2)cc1`, for which the AC50 is 15.8 µM [rising, partial curve] under setting [2] and 3.98 µM [rising, partial curve] under setting [3].

Broadly, the AC50 is the midpoint of the concentration-response curve, whichever way the signal moves.
